Measurements from “University of Dundee, Small-Polar-MMV Screening Library” (2021), ChEMBL document CHEMBL3988442.

By UniProt entry, the sequences of proteins in these tests, tags left out.
UniProt E9BF75, entry or part of it: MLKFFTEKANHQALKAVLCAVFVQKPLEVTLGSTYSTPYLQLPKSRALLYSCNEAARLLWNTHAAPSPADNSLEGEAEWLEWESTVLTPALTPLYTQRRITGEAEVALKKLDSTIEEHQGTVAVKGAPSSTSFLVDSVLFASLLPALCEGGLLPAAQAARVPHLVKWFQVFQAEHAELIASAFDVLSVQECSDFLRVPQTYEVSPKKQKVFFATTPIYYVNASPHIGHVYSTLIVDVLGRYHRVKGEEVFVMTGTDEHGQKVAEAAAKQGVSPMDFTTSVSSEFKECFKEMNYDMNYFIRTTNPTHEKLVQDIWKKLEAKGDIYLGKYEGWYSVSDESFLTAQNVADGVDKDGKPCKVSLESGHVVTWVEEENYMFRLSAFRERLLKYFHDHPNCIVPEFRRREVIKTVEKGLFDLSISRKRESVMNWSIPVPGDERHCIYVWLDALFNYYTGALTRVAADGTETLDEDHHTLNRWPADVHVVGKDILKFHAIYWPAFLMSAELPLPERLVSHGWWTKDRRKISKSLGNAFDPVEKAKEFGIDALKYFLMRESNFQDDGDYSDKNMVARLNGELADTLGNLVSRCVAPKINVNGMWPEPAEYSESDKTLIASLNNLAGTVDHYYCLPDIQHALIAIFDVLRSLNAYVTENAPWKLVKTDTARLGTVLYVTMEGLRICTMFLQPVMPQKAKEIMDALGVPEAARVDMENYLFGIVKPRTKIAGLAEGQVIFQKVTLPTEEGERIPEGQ

A: 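Primary screen of methionyl-tRNA synthetase; the read-out is not stated. Target: Methionyl-tRNA synthetase (putative), Leishmania donovani (UniProt E9BF75). The test concentration is not given. Values are per cent inhibition. About 68,000 compounds were tested under these conditions; 0.035% (about 24) showed 50% or more at least once.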
B: 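Assay on Mycobacterium tuberculosis, filed only as a heat shock assay from Cornell; the read-out is not stated. The concentration is filed as 10 mM, unlikely as a test dose, so the dose is not known. Higher reads as stronger inhibition (inferred: compounds with an IC50 in retests scored well above the rest). About 69,000 compounds were tested under these conditions; 1.4% (about 930) showed 50% or more at least once.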

All values are in %.
The record does not define 0% and 100%; most values in the screen are far below 50% and negative numbers occur (in some assays of this library far below -100).
Compounds were drawn at random from those tested, without regard to their results.
A dash means the value is not listed here; it may have been measured.

Compound,A,B
CC(C)C(=O)NCCNC(=O)CCOc1cccc(F)c1,13.16%,21.69%
O=C(c1ncn2c1CNS(=O)(=O)c1ccccc1-2)N1CCCCCC1,1.742%,14.41%
Cc1ccoc1C(=O)N1C[C@@H]2COC[C@]2(CNS(C)(=O)=O)C1,-11.35%,-
O=C(CC1CC1)NC1CCc2c(ccc(=O)n2CC2CC2)C1 (stereo not shown),16.38%,2.406%
Cc1nc(NS(=O)(=O)c2ccc(C)c(Br)c2)no1,6.211%,-0.3607%
CCc1nc(CC(=O)Nc2cnn(CC3CCCO3)c2)cs1 (stereo not shown),9.783%,13.61%
Cn1ccnc1CN1C[C@H]2CN(S(=O)(=O)c3ccccc3)CCN2C1=O,11.28%,-
O=C(O)C(F)(F)F.O=C(O)C(F)(F)F.[H][C@@]12CN(CCOCC)C[C@H](C(=O)Nc3cccnc3)[C@]1([H])CCO2,-,5.081%
CCOCC1CN(Cc2ccc(F)cc2)Cc2nn(C)cc21 (stereo not shown),6.536%,-
O=C(O)C(F)(F)F.O=C1COC2(CCN(Cc3cccs3)CC2)CN1c1cncnc1,-,-23.95%
CCC(=O)N1CCN(c2ncnc3c(C)nn(C)c23)CC1,-2.261%,-4.507%
CC(NC(=O)N1CCCCCC1)c1ccc(S(N)(=O)=O)cc1 (stereo not shown),12.04%,6.645%
CN(C)CC(=O)N1CC(c2nn(C)c3nccnc23)C1,7.812%,-12.83%
Cc1cc(C(=O)N2CC[C@H]3[C@H](C[C@@H](CN4CCCC4)N3C)C2)c(C)o1,10.44%,-
CC(C)NC(=O)[C@@H]1CCO[C@@H]2CCN(c3ncccn3)C[C@@H]21,7.492%,-
[H][C@]12C[C@H](C(=O)NC)N(S(C)(=O)=O)[C@@]1([H])CN(C(=O)c1ccco1)C2,-,6.779%
Cc1cc(NC(=O)CN2CCCC2c2c(C)nn(C)c2C)on1 (stereo not shown),21.23%,-13.1%
CCc1ccc(C(=O)NC2CCc3nc(C)cn3C2)o1 (stereo not shown),8.197%,40.1%
O=C(NC[C@H]1OC[C@@H](NC2CCOCC2)[C@@H]1O)C1CCCC1,11.19%,-1.437%
CCc1cc(CN(C)C(=O)c2cc(=O)[nH]c(=O)[nH]2)on1,8.303%,-1.249%
Cc1ccc(F)c2c1CCCN2C(=O)c1cn(CC(=O)N(C)C)nn1,6.233%,-0.7963%
CCN(C)Cc1cnc(S(=O)(=O)CC)n1CCOC,10.37%,-23.09%
Cn1cccc1C(=O)N1CC[C@@]2(O)CCN(S(C)(=O)=O)C[C@H]2C1,12.47%,-
CCC(=O)Nc1cccc(OCC(=O)N2CC=CC2C(C)C)c1 (stereo not shown),13.62%,-28.21%
c1cc(CNCC2CNc3ccnn3C2)cc(OC2CCCCC2)n1 (stereo not shown),24.5%,-0.4209%
CSc1nnc(CC2CCN(C(=O)COc3cccnc3)CC2)n1C,14.99%,12.09%
O=C(C1CCOCC1)N1CCO[C@H]2[C@@H](OCC3CC3)CC[C@@H]21,17%,-
O=C(NS(=O)(=O)c1ccccc1C(F)(F)F)c1cccc2c1OCCO2,14.37%,-11.84%
CC(C)=CCN1C[C@H]2CC[C@@H]1CN(C(=O)Cc1c(C)nc(C)[nH]c1=O)C2,-2.847%,-
Cc1nn(C)c(Cl)c1CN1CCN(c2nccs2)C(C)C1 (stereo not shown),5.758%,-7.234%
Cc1noc(Cl)c1CCC(=O)N1CCC(CC(N)=O)CC1,14.96%,-17.38%
Cc1ccc(CCN2CCC(N(C)Cc3noc(C4CC4)n3)C2)cc1 (stereo not shown),6.135%,83.22%
CC(C)CN1CC[C@@H]2[C@@H]1CCN2S(=O)(=O)c1cn(C)cn1,7.299%,-
O=C(c1cc(Br)ccc1-n1cnnn1)N1CCCC1,20.33%,-3.054%
CC[C@H]1N(Cc2ccco2)CCC[C@]12CCC(=O)N2C,13.14%,14.87%
COC(C)c1noc(CN(C)c2ncc(Br)cn2)n1 (stereo not shown),8.059%,2.049%
CCc1nc(CC(=O)NCC(Cc2ccc(F)cc2)C(N)=O)cs1 (stereo not shown),9.155%,-15.63%
O=C(CCS(=O)(=O)C1CCCC1)NCCc1ccc2c(c1)OCCO2,12.15%,10.5%
CN1CC(=O)N(c2cccc(F)c2)CC12CCNC2 (stereo not shown),9.091%,0.7371%
CN1CCC(C2CCN(Cc3cccc(-n4cccn4)c3)CC2)C1 (stereo not shown),24.31%,11.11%
CN(C)C(=O)c1ccc(-c2cccc3c2CCNC3)o1,6.65%,-0.09058%
O=C(C1CCC2(CCN(Cc3cccnc3)CC2)CO1)N1CCCC1 (stereo not shown),14.47%,-
Cc1nccn1CCCn1c(=O)cnc2ccccc21,5.81%,-44.62%
COCC1CN(Cc2ccc(C)o2)Cc2nnn(C)c21 (stereo not shown),5.914%,-
CC(C)CC(NC(=O)c1ccco1)c1nnc2ccccn12 (stereo not shown),12.9%,66.07%
CS(=O)(=O)c1ccc(NC(=O)CSc2ccc3c(c2)CCC3)cn1,-1.099%,-7.103%
Cn1cccc1-c1cc(C(=O)NCCCc2csc(N)n2)[nH]n1,12.1%,12.69%
CC(=O)c1ccccc1NC(=O)CCN1CCSCC1,8.333%,-14.31%
CCN1CCCc2cc(CN3CCc4nc(C)[nH]c(=O)c4C3)ccc21,13.52%,-8.347%
CCOCC1C[C@@H]2OCCN(C(=O)c3ccc[nH]3)[C@H]2C1 (stereo partly shown),15.58%,-
O=C(C1CCCC1)N1CCC(Nc2ccncn2)CC1,13.9%,-1.757%
O=C(O)C(F)(F)F.O=C(c1cccnc1)N1CCc2ncnc(N3CCOCC3)c2CC1,-,1.827%
CNc1ncc(-c2ccc(NC(=O)[C@@H]3CCCCN3)cc2)cn1,10.44%,-9.316%
CNC(=O)CC1CC2(CCN(CC3CC3)CC2)Oc2ccccc21.O=C(O)C(F)(F)F (stereo not shown),-,11.93%
O=C(O)C(F)(F)F.[H][C@]12CN(c3ccccc3)C(=O)[C@@]1([H])CN(C1CCOC1)C2 (stereo partly shown),-,-5.024%
CC(=O)N(C)C(c1cccc(F)c1)c1ccccn1 (stereo not shown),0%,-18.5%
O=C(O)C(F)(F)F.[H][C@@]12C[C@H](C(=O)NC3CC3)CN(Cc3ccc(F)cc3)[C@]1([H])CCO2,-,-29.89%
[H][C@]12CC[C@]([H])(CC(=O)NC1)N2C(=O)CCc1ccccc1,-,16.33%
CS(=O)(=O)N1CCN(Cc2c(O)ccc3oc4c(c23)CCCC4)CC1,12.54%,27.26%
O=C(NCCCO)NCCc1cc(F)ccc1F,11.67%,-21.59%
Cc1cc(C)cc(OCCN(C)C2CCOC2=O)c1 (stereo not shown),10.45%,-12.17%
CN(C)C(=O)N1CCCC(C(=O)N(C)Cc2cnc(N)nc2)C1 (stereo not shown),14.89%,-4.448%
O=S(=O)(Nc1cnc(N2CCOCC2)nc1)c1ccc(C(F)(F)F)cc1,11.8%,7.101%
Cc1nc(C)n(C2CCCN(C(=O)CCCn3ccnc3)C2)n1 (stereo not shown),7.619%,-2.205%
COC(=O)c1ccc(N2CCN(CCC#N)C(C)C2)cc1 (stereo not shown),11.02%,-12.52%
COC(=O)CCC(=O)N1CCCC2(CCCN2Cc2cccc(F)c2)C1.O=C(O)C(F)(F)F (stereo not shown),-,3.912%
CN(C)C(=O)C1(C)CN(Cc2cn(C)c3ccc(F)cc23)CCO1 (stereo not shown),7.349%,64.53%
Cc1cc(C(=O)NCc2ccc(N3CCN(C)CC3)nc2)c(C)s1,14.21%,14.2%
COc1cccc2ccn(CC(=O)NCCC(C)C)c12,4.545%,-8.342%
Cc1cccnc1CN(C)C(C(=O)O)c1ccc(-n2cccn2)cc1 (stereo not shown),17.1%,85.61%
NC(=O)NCC(=O)N1CCC2(CC1)c1ccccc1CC2O (stereo not shown),8.027%,-2.535%
CCOCC(=O)N1CCC(C2CCN(Cc3ccc(Cl)cc3)C2)CC1 (stereo not shown),15.86%,5.51%
Cc1nn(C)c(C)c1CC(=O)N1CCCC(CNS(C)(=O)=O)C1 (stereo not shown),-0.7752%,18.96%

Repeated from the top, 9 entries:

Compound	A	B
CC(C)C(=O)NCCNC(=O)CCOc1cccc(F)c1	13.16%	21.69%
O=C(c1ncn2c1CNS(=O)(=O)c1ccccc1-2)N1CCCCCC1	1.742%	14.41%
Cc1ccoc1C(=O)N1C[C@@H]2COC[C@]2(CNS(C)(=O)=O)C1	-11.35%	-
O=C(CC1CC1)NC1CCc2c(ccc(=O)n2CC2CC2)C1 (stereo not shown)	16.38%	2.406%
Cc1nc(NS(=O)(=O)c2ccc(C)c(Br)c2)no1	6.211%	-0.3607%
CCc1nc(CC(=O)Nc2cnn(CC3CCCO3)c2)cs1 (stereo not shown)	9.783%	13.61%
Cn1ccnc1CN1C[C@H]2CN(S(=O)(=O)c3ccccc3)CCN2C1=O	11.28%	-
O=C(O)C(F)(F)F.O=C(O)C(F)(F)F.[H][C@@]12CN(CCOCC)C[C@H](C(=O)Nc3cccnc3)[C@]1([H])CCO2	-	5.081%
CCOCC1CN(Cc2ccc(F)cc2)Cc2nn(C)cc21 (stereo not shown)	6.536%	-